Results are given in words; binding and its absence hold for the method and conditions named. Some entries that bind do so weakly or less than the wild type.
Experiments:
[1] = target: integrin β8 on β8 expressing 293 cells (human) (UniProt P26012); experiment: staining of β8 expressing 293 cells (FIG. 2A)
clasped αvβ8 (human) = clasped αvβ8 (human) (UniProt P06756); experiment: size-exclusion purified complex, negative-stain EM
unclasped αvβ8 (human) = unclasped αvβ8 (human) (UniProt P06756); experiment: size-exclusion purified complex, negative-stain EM

The chains behind the UniProt entries cited, without tags or fusion partners. Where a name states a change or a piece, a line headed by the entry shows the natural chain unless it says otherwise.
UniProt P26012: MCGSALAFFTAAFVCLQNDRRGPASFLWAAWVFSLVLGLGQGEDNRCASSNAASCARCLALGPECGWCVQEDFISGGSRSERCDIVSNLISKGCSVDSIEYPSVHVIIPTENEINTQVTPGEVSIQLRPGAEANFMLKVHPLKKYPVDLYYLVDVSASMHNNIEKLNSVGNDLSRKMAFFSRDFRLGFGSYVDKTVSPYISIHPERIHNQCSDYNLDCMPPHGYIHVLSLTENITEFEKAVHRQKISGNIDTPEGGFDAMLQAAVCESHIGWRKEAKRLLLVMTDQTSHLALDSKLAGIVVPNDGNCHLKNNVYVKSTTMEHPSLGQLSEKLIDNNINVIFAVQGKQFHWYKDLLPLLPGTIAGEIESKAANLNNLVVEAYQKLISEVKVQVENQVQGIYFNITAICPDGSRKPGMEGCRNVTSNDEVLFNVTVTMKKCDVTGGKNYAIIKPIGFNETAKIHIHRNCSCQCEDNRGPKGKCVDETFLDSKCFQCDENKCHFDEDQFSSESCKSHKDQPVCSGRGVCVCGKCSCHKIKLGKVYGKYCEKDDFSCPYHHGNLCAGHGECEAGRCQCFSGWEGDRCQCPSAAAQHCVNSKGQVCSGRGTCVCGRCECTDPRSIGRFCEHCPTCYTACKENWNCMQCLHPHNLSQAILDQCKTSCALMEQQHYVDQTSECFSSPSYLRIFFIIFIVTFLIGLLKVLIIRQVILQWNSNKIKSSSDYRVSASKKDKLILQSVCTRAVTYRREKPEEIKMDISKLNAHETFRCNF
UniProt P06756: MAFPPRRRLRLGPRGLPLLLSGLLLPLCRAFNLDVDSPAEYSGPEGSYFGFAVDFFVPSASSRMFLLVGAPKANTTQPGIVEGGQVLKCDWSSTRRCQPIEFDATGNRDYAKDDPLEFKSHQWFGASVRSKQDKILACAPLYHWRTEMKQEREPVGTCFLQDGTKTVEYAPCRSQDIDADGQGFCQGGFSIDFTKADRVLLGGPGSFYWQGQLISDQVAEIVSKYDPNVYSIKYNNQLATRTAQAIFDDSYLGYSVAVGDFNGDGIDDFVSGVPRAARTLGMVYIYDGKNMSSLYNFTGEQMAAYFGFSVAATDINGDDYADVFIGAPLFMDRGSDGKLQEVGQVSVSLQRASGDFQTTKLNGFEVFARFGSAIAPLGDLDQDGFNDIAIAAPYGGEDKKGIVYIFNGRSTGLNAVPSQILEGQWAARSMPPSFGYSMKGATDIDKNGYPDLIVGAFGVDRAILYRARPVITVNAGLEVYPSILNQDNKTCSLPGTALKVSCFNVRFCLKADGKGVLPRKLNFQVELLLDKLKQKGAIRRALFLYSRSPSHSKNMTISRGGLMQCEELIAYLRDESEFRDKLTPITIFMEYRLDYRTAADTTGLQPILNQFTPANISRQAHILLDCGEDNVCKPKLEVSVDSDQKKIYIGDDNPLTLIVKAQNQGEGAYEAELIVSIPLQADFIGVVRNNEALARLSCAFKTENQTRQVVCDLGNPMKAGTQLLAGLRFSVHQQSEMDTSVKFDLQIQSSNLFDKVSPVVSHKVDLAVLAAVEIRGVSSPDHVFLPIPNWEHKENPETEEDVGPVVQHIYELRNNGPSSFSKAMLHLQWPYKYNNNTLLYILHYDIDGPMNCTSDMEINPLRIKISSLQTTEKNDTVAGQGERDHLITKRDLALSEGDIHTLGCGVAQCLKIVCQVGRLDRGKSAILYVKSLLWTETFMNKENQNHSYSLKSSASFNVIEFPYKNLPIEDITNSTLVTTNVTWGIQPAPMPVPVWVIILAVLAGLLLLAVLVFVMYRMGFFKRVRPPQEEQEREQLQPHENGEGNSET

binding [1]	binding (clasped αvβ8 (human))	binding (unclasped αvβ8 (human))	Binder
binds			37E1B5 antibody (antibody, V domains shown, glycan in heavy chain CDR2 (SEQ ID NO:7)) VH: EVQLVESGGGLVQPGGSLNLSCAVSGFVFSRYWMSWVRQAPGKGLEWIGEINPDSSTINYTSSLKDKFIISRDNAKNTLYLQMNKVRSEDTALYYCACLITTEDYWGQGTSVTVSS VL: QIVLTQSPSSMYASLGERVTIPCKASQDINSYLSWFQQKPGKSPKTLIYYANRLVDGVPSRFSGSGSGQDYSLTISSLEYEDMGIYYCLQYDEFPYTFGGGTKLEIKA
	binds	binds	37E1B5 Fab (Fab, V domains shown, heavy chain CDR2 glycosylation) VH: EVQLVESGGGLVQPGGSLNLSCAVSGFVFSRYWMSWVRQAPGKGLEWIGEINPDSSTINYTSSLKDKFIISRDNAKNTLYLQMNKVRSEDTALYYCACLITTEDYWGQGTSVTVSS VL: QIVLTQSPSSMYASLGERVTIPCKASQDINSYLSWFQQKPGKSPKTLIYYANRLVDGVPSRFSGSGSGQDYSLTISSLEYEDMGIYYCLQYDEFPYTFGGGTKLEIKA

Source: US20170129955A1
